Experimental data as given in paper PMC3842171 (Bioorganic & medicinal chemistry letters, 2011).

System: HDAC activity (HeLa cell lysates)
Assay: Fluor de Lys in vitro fluorescence HDAC activity assay using HeLa cell lysates
Type: biochemical
Details: HeLa cell lysates as source of HDAC activity; mean of three experiments with standard error

## O=C(CCCCCCC(=O)Nc1ccccc1)NO [SAHA, suberoylanilide hydroxamic acid, reference compound]
  IC50: 90 ± 4 nM
